In the supplement of paper PMC6078165:
± gives the standard deviation of the averaged measurements. The reference is the same well before dosing, and untreated signal decays as well.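 Fibroblast labels denote human fibroblasts, mainly primary ones from uterus (C12385, HUF), lung (H6013), bone (Hs27A), adrenal (HADF) and skin (WS1), plus mammary HMF and breast cancer-associated Hs343T. Cancer cells are basal-like or mesenchymal-like triple-negative breast cancer lines. A hit is a response shift exceeding 3x replicate standard deviation. The tissue of the other fibroblasts is not given here.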

Test system: MDAMB468
Test: relative JC-1 red fluorescence (viability) vs pre-drug, coculture with fibroblast (fraction); higher = more viable cancer cells
Experimental: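 JC-1 labelled TNBC cells cocultured 1:1 (1,500 cells each) with CellTrace Violet stained primary or stromal fibroblasts in 384-well plates in FluoroBrite medium, treated with one of 42 anticancer drugs at 0.1, 1, 10 or 100 uM. JC-1 red fluorescence (mitochondrial integrity in cancer cells only) was read by plate reader every 8 h for 72 h. Values are normalised to each well's pre-drug value. The stock of one drug was tenfold lower, so its dose labels may be too high.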

CO[C@H]1C[C@@H]2CC[C@@H](C)[C@@](O)(O2)C(=O)C(=O)N2CCCC[C@H]2C(=O)O[C@H]([C@H](C)C[C@@H]2CC[C@@H](O)[C@H](OC)C2)CC(=O)[C@H](C)/C=C(\C)[C@@H](O)[C@@H](OC)C(=O)[C@H](C)C[C@H](C)/C=C/C=C/C=C/1C [Rapamycin]
relative JC-1 red fluorescence
Conditions	8 h	16 h	24 h	32 h	40 h	48 h	56 h	64 h	72 h
10 µM, coculture fibroblast: C12385	0.975 ± 0.0072	0.958 ± 0.047	0.8839 ± 0.0063	0.833 ± 0.05	0.872 ± 0.012	0.901 ± 0.043	0.839 ± 0.15	0.962 ± 0.018	0.9702 ± 0.0037
10 µM, coculture fibroblast: H6013	0.83 ± 0.019	0.839 ± 0.034	0.828 ± 0.045	0.884 ± 0.05	0.895 ± 0.056	0.923 ± 0.062	0.917 ± 0.058	0.917 ± 0.058	0.896 ± 0.068
10 µM, coculture fibroblast: H6019	0.8521 ± 0.0057	0.8 ± 0.016	0.784 ± 0.061	0.761 ± 0.077	0.754 ± 0.11	0.772 ± 0.13	0.741 ± 0.14	0.744 ± 0.14	0.743 ± 0.13
10 µM, coculture fibroblast: H6076	0.9006 ± 0.006	0.9626 ± 0.0021	0.8678 ± 0.0024	0.8526 ± 0.0018	0.748 ± 0.015	0.701 ± 0.013	0.656 ± 0.012	0.631 ± 0.023	0.677 ± 0.04
10 µM, coculture fibroblast: H6231	0.7992 ± 0.0021	0.789 ± 0.037	0.947 ± 0.048	0.966 ± 0.02	0.915 ± 0.029	0.89 ± 0.059	0.842 ± 0.085	0.811 ± 0.11	0.801 ± 0.12
10 µM, coculture fibroblast: HADF	0.865 ± 0.025	0.85 ± 0.0096	0.792 ± 0.011	0.792 ± 0.016	0.7526 ± 0.0053	0.741 ± 0.012	0.692 ± 0.0074	0.669 ± 0.0088	0.609 ± 0.013
10 µM, coculture fibroblast: HCFa	0.80488 ± 0.00032	0.752 ± 0.0098	0.718 ± 0.028	0.708 ± 0.031	0.679 ± 0.045	0.696 ± 0.043	0.656 ± 0.049	0.63 ± 0.053	0.576 ± 0.055
10 µM, coculture fibroblast: HCPF	0.8415 ± 0.0038	0.776 ± 0.098	0.942 ± 0.041	0.93 ± 0.055	0.866 ± 0.1	0.838 ± 0.059	0.764 ± 0.054	0.748 ± 0.068	0.734 ± 0.068
10 µM, coculture fibroblast: HHSteC	0.845 ± 0.028	0.872 ± 0.01	0.877 ± 0.0011	0.8948 ± 0.0089	0.899 ± 0.054	0.92 ± 0.072	0.864 ± 0.084	0.839 ± 0.083	0.781 ± 0.081
10 µM, coculture fibroblast: HMF	0.824 ± 0.027	0.731 ± 0.027	0.895 ± 0.05	0.922 ± 0.048	0.877 ± 0.013	0.865 ± 0.032	0.81 ± 0.029	0.791 ± 0.034	0.757 ± 0.017
10 µM, coculture fibroblast: HPFa	0.867 ± 0.013	0.907 ± 0.037	0.939 ± 0.078	0.805 ± 0.12	0.849 ± 0.071	0.831 ± 0.13	0.841 ± 0.059	0.894 ± 0.025	0.898 ± 0.11
10 µM, coculture fibroblast: HUF	0.759 ± 0.023	0.793 ± 0.085	0.826 ± 0.14	0.889 ± 0.11	0.875 ± 0.079	0.9 ± 0.016	0.86 ± 0.03	0.811 ± 0.071	0.79 ± 0.07
10 µM, coculture fibroblast: Hs5	0.868 ± 0.17	0.975 ± 0.025	0.917 ± 0.051	0.879 ± 0.057	0.807 ± 0.042	0.755 ± 0.063	0.696 ± 0.072	0.653 ± 0.065	0.668 ± 0.074
10 µM, coculture fibroblast: Hs27A	0.771 ± 0.011	0.8023 ± 0.0031	0.7608 ± 0.0011	0.8112 ± 0.0063	0.7736 ± 0.0058	0.8009 ± 0.0012	0.7849 ± 0.0029	0.769 ± 0.015	0.709 ± 0.033
10 µM, coculture fibroblast: Hs343T	0.8724 ± 0.0054	0.816 ± 0.09	0.9597 ± 0.0047	0.9022 ± 0.0064	0.824 ± 0.033	0.799 ± 0.043	0.755 ± 0.066	0.748 ± 0.056	0.716 ± 0.079
10 µM, coculture fibroblast: WS1	0.9084 ± 0.0027	0.811 ± 0.031	0.754 ± 0.06	0.647 ± 0.083	0.566 ± 0.09	0.53 ± 0.095	0.493 ± 0.098	0.468 ± 0.092	0.453 ± 0.09
100 µM, coculture fibroblast: C12385	0.857 ± 0.024	0.765 ± 0.061	0.565 ± 0.015	0.497 ± 0.025	0.375 ± 0.022	0.3591 ± 0.0021	0.3607 ± 0.0012	0.391 ± 0.011	0.417 ± 0.011
100 µM, coculture fibroblast: H6013	0.872 ± 0.17	0.98405 ± 0.00019	0.909 ± 0.034	0.856 ± 0.046	0.73 ± 0.04	0.617 ± 0.043	0.5 ± 0.035	0.488 ± 0.032	0.479 ± 0.045
100 µM, coculture fibroblast: H6019	0.917 ± 0.052	0.701 ± 0.07	0.596 ± 0.066	0.545 ± 0.067	0.43 ± 0.063	0.33 ± 0.072	0.269 ± 0.062	0.259 ± 0.043	0.286 ± 0.055
100 µM, coculture fibroblast: H6076	0.898 ± 0.088	0.728 ± 0.16	0.694 ± 0.21	0.647 ± 0.2	0.51 ± 0.19	0.451 ± 0.16	0.453 ± 0.16	0.483 ± 0.16	0.599 ± 0.18
100 µM, coculture fibroblast: H6231	0.82 ± 0.084	0.785 ± 0.11	0.792 ± 0.24	0.854 ± 0.19	0.799 ± 0.18	0.805 ± 0.16	0.778 ± 0.15	0.76 ± 0.16	0.765 ± 0.16
100 µM, coculture fibroblast: HADF	0.958 ± 0.011	0.834 ± 0.034	0.724 ± 0.033	0.68 ± 0.023	0.564 ± 0.029	0.456 ± 0.027	0.373 ± 0.0053	0.398 ± 0.011	0.3849 ± 0.0014
100 µM, coculture fibroblast: HCFa	0.899 ± 0.071	0.825 ± 0.17	0.731 ± 0.2	0.681 ± 0.19	0.567 ± 0.16	0.485 ± 0.13	0.398 ± 0.083	0.373 ± 0.062	0.371 ± 0.05
100 µM, coculture fibroblast: HCPF	0.882 ± 0.0092	0.972 ± 0.017	0.9193 ± 0.0016	0.9252 ± 0.003	0.8563 ± 0.0029	0.839 ± 0.016	0.795 ± 0.021	0.78 ± 0.015	0.768 ± 0.023
100 µM, coculture fibroblast: HHSteC	0.956 ± 0.052	0.878 ± 0.16	0.769 ± 0.19	0.708 ± 0.2	0.598 ± 0.17	0.504 ± 0.15	0.374 ± 0.11	0.343 ± 0.11	0.335 ± 0.1
100 µM, coculture fibroblast: HMF	0.8538 ± 0.0045	0.846 ± 0.2	0.949 ± 0.016	0.92 ± 0.015	0.861 ± 0.016	0.849 ± 0.015	0.787 ± 0.023	0.764 ± 0.038	0.734 ± 0.052
100 µM, coculture fibroblast: HPFa	0.925 ± 0.051	0.822 ± 0.15	0.871 ± 0.15	0.774 ± 0.16	0.682 ± 0.16	0.607 ± 0.16	0.499 ± 0.15	0.447 ± 0.11	0.385 ± 0.041
100 µM, coculture fibroblast: HUF	0.954 ± 0.031	0.829 ± 0.003	0.65 ± 0.024	0.551 ± 0.025	0.41 ± 0.0054	0.318 ± 0.0097	0.288 ± 0.0099	0.315 ± 0.014	0.337 ± 0.0084
100 µM, coculture fibroblast: Hs5	0.802 ± 0.1	0.744 ± 0.1	0.675 ± 0.12	0.607 ± 0.11	0.508 ± 0.097	0.412 ± 0.084	0.363 ± 0.069	0.375 ± 0.074	0.451 ± 0.085
100 µM, coculture fibroblast: Hs27A	0.848 ± 0.021	0.802 ± 0.086	0.808 ± 0.14	0.791 ± 0.16	0.697 ± 0.15	0.626 ± 0.17	0.504 ± 0.14	0.465 ± 0.033	0.437 ± 0.055
100 µM, coculture fibroblast: Hs343T	0.8955 ± 0.0028	0.918 ± 0.068	0.956 ± 0.05	0.952 ± 0.047	0.886 ± 0.054	0.874 ± 0.051	0.834 ± 0.026	0.827 ± 0.026	0.8171 ± 0.0062
100 µM, coculture fibroblast: WS1	0.915 ± 0.011	0.797 ± 0.18	0.695 ± 0.21	0.625 ± 0.21	0.47 ± 0.19	0.351 ± 0.12	0.326 ± 0.078	0.329 ± 0.049	0.365 ± 0.042
